Laboratory results: PubChem BioAssay AID2052 (NMMLSC, 2009)
The other results are listed elsewhere or left out.

test: murine CD8 T cell vesicle adhesion modulation – mouse 2C CD8+ T cells, flow cytometry, primary screen (AID 2052); details: 2C CD8+ T cell-vesicle binding, measured here: CD8+ vesicle-bound cell fraction, at 7 µM, stronger effect = lower value;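 further: binding gate set so that unloaded-vesicle control wells show 10% double positive cells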
In short: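 material = purified 2C TCR transgenic mouse naive CD8+ T cells | controls = Unloaded micro-vesicles (low), QL9 vesicles with 0.7% DMSO (high) | detection = cytometric PE anti-B7-1 and Alexa647 anti-CD8 signals after 1% paraformaldehyde fixation | incubation = binding step 1.5 h, 37 °C, antibody labelling 20 min, ice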

Structure (SMILES)	double positive events [%]
CCc1cc(C(=O)NCC2(N3CCCCC3)CCCCC2)sc1C	27.9
O=C(OC1CN2CCC1CC2)C1c2ccccc2C=Cc2ccccc21 (centres undefined)	20.7
N/C(=N\O)c1c(N)no[n+]1[O-]	33.9
CCOC(=O)N1CCC(Nc2ccc(C)cc2)CC1	59.3
COc1ccc(C(=O)NCC2(N3CCOCC3)CCCCC2)cc1OC	54
O=C(NCC1(N2CCOCC2)CCCCC1)c1cc(Br)ccc1Cl	39.2
COc1cc(C(=O)NCC2(N3CCOCC3)CCCCC2)cc(OC)c1C	41.4
c1ccc(CN2CCC(Nc3ccccc3)CC2)cc1	49.6
CCCN1CCC(Nc2cc(OC)cc(OC)c2)CC1	60.7
CN(C)C1(CNC(=O)c2cccc(C#N)c2)CCCCC1	60.7
CC(C)(C)OC(=O)N1CCC(N(C(=O)c2ccccc2)c2ccc(Cl)cc2)CC1	56
N#Cc1ccc(C(=O)NCC2(N3CCCCC3)CCCCC2)cc1	55.9
O=C(NCC1(N2CCCCC2)CCCCC1)c1ccco1	46
CN(C)c1ccc(C(=O)NCC2(N3CCCCC3)CCCCC2)cc1	45.9
CCN1CCC(Nc2cccc(F)c2)CC1	51.6
Cc1ccc(C(=O)NCC2(N3CCCCC3)CCCCC2)o1	21.8
Fc1ccccc1NC1CCN(Cc2ccccc2)CC1	30.6
COc1cc(OC)cc(C(=O)NCC2(N3CCCCC3)CCCCC2)c1	38.3
CCCOc1ccc(C)cc1CN(CCCl)CCCl	34.2
CN1CCC(Nc2ccc(Cl)cc2)CC1	57.8
CCC(CO)(C(=O)OC1CN2CCC1CC2)c1ccccc1 (centres undefined)	12
COc1cc(OC)cc(C(=O)NCC2(N3CCOCC3)CCCCC2)c1	32

Structure (SMILES)	double positive events [%]
COc1cccc(C(=O)N(c2cc(C)cc(C)c2)C2CCN(C(=O)OC(C)(C)C)CC2)c1	20.1
CCCOc1ccc(C(=O)NCC2(N(C)C)CCCCC2)cc1	9.5
CC(C)(C)OC(=O)N1CCC(Nc2ccccc2)CC1	23
O=C(O)C1(Nc2ccccc2)CCN(Cc2ccccc2)CC1	43.5
CCOc1ncccc1C(=O)NCC1(N2CCOCC2)CCCCC1	32.1
CN1CCC(Nc2ccc(F)c(Cl)c2)CC1	53.5
CCOC(=O)N1CCC(Nc2ccc(OC)cc2)CC1	45.7
N#CC1(Nc2ccccc2)CCN(Cc2ccccc2)CC1	45.4
O=C(NCC1(N2CCCCC2)CCCCC1)c1ccc(Cl)s1	39.8
O=C(OC1CN2CCC1CC2)C1c2ccccc2Oc2ccccc21 (centres undefined)	43.9
COc1ccc(Cl)cc1C(=O)NCC1(N2CCOCC2)CCCCC1	43.9
O=C(NCC1(N2CCOCC2)CCCCC1)c1cc2ccccc2o1	17.8
O=C(NCC1(N2CCCCC2)CCCCC1)c1ccc(Cl)nc1	21.7
Cc1cc(C)cc(N(C(=O)c2ccccc2)C2CCN(C(=O)OC(C)(C)C)CC2)c1	17.1
CSc1ccccc1C(=O)NCC1(N2CCCCC2)CCCCC1	20.5
O=C(NCC1(N2CCCCC2)CCCCC1)c1ccc(=O)[nH]c1	10.8
O=C(NCC1(N2CCCCC2)CCCCC1)c1cccs1	39.9
COc1ccc(C(=O)NCC2(N3CCCCC3)CCCCC2)cc1	43.6
COc1ccc(C(=O)NCC2(N3CCCCC3)CCCCC2)c(OC)c1OC	31
CC(C)(C)OC(=O)N1CCC(N(C(=O)c2ccccc2)c2ccc(F)cc2)CC1	33.9
CCOC(=O)N1CCC(Nc2cccc(C)c2)CC1	49.1
COc1cc(C(=O)NCC2(N(C)C)CCCCC2)ccc1OC(F)F	36.7

Structure (SMILES)	double positive events [%]
Cc1ccc(OCC(C)C)c(CN(CCCl)CCCl)c1	49.4
O=C(NCC1(N2CCCCC2)CCCCC1)c1ccc(F)cc1	30.3
COc1ccc(NC2CCN(CCc3ccccc3)CC2)c(OC)c1	18.7
CCOC(=O)N1CCC(Nc2ccc(F)cc2)CC1	21.2
CN1CCN(CCOC(=O)C(O)(c2ccccc2)c2ccccc2)CC1	35
COc1ccc(NC2CCN(C(=O)OC(C)(C)C)CC2)cc1	36.4
COc1cc(C(=O)NCC2(N3CCCCC3)CCCCC2)ccc1OC(F)F	16
O=C(NCC1(N2CCOCC2)CCCCC1)c1cc(=O)[nH]c2ccccc12	45.4
O=C(NCC1(N2CCCCC2)CCCCC1)c1cccc(C(F)(F)F)c1	45.2
O=C(NCC1(N2CCCCC2)CCCCC1)c1cccc([N+](=O)[O-])c1	44.9
CCN1CCC(Nc2ccc(Cl)cc2)CC1	48.1
N#CC1(Nc2ccccc2)CCN(CCc2ccccc2)CC1	18.6
O=C(NCC1(N2CCCCC2)CCCCC1)c1ccc(OC(F)F)cc1	49.8
CCCOc1ccc(C(=O)NCC2(N(C)C)CCCCC2)cc1OC	15.7
CN1CCC(Nc2cccc(F)c2)CC1	48.8
O=C(NCC1(N2CCCCC2)CCCCC1)c1cncc(Br)c1	27.5
COc1cc(OC)c(C(=O)NCC2(N(C)C)CCCCC2)cc1OC	17.3
O=C(NCC1(N2CCOCC2)CCCCC1)c1cc(F)c(F)cc1Cl	34.9
CN(C)c1cccc(C(=O)NCC2(N3CCCCC3)CCCCC2)c1	35.9
CC(C)c1ccc(NC2CCN(C(=O)OC(C)(C)C)CC2)cc1	4.8
